Test results from paper PMC12848939.
No constants are given. Whether binding was seen depends on the method and setting. Binding seen in cells or lysates may run through a third protein. A yes stands for co-enrichment or nearness to the bait. Other partners may have been found. For some assays here: Sequences can lack the tags named with a protein. Values belong to the molecule of their own block, whether it stands above or below them.

The chains behind the UniProt entries cited, without tags or fusion partners.
UniProt Q12460: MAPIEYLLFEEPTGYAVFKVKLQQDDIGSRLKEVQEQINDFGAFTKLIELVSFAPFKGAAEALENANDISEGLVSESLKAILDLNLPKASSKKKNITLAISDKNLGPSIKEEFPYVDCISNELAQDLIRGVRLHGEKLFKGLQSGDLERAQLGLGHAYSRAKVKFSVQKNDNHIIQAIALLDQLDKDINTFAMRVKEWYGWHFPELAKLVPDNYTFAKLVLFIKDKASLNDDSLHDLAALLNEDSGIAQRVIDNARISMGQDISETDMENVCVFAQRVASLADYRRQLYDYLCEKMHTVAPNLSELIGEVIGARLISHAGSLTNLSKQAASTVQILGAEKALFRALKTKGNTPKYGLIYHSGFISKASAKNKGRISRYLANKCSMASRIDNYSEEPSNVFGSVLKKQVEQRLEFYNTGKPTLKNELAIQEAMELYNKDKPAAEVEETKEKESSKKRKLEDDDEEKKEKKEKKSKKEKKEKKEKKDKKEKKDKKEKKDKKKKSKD

Columns and labels:
[1] = target: T1, Sni445-TurboID (S. cerevisiae) (UniProt P53952); experiment: proximity labelling; TurboID: Sni445-TurboID expressed from the CUP1 promoter in yeast; biotinylated proteins purified on streptavidin beads and identified by MS; enrichment against GFP-TurboID and NLS-GFP-TurboID controls
T1 sequence: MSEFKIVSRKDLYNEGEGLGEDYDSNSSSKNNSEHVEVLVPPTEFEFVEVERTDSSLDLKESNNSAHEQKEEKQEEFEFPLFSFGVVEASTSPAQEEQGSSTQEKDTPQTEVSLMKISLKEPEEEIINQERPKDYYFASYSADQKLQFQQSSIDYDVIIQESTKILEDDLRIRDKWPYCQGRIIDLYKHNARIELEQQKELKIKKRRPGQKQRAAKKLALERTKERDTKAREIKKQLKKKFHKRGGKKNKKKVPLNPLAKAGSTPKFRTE

[2] = target: Nop58-FLAG (S. cerevisiae) (UniProt Q12499); experiment: affinity purification with mass spectrometry; split-tag two-step purification: first Sni445-TAP on IgG Sepharose with TEV elution, then Nop58-FLAG on anti-FLAG M2 agarose with 3x Flag peptide elution; SDS-PAGE, Coomassie, bands identified by MS
[3] = target: T2, Sni445-TAP (S. cerevisiae) (UniProt P53952); experiment: as above
T2 sequence: T1 sequence

[4] = target: T3, Sni445-FLAG (S. cerevisiae) (UniProt P53952); experiment: affinity purification with mass spectrometry; one-step FLAG purification of Sni445-FLAG from yeast lysate (Anti-FLAG M2 Affinity Gel, FLAG-peptide elution; 50 mM Tris-HCl pH 7.5, 100 mM NaCl, 1.5 mM MgCl2, 0.075% NP-40); label-free MS, three replicates
T3 sequence: T1 sequence

[5] = target: T2, Sni445-TAP (S. cerevisiae); experiment: affinity purification with mass spectrometry; tandem affinity purification of chromosomally TAP-tagged baits from yeast lysate (IgG Sepharose, TEV elution, Calmodulin Sepharose, EGTA elution; 50 mM Tris-HCl pH 7.5, 100 mM NaCl, 1.5 mM MgCl2, 0.075% NP-40); label-free MS, three replicates; Pwp2-TAP and Enp1-TAP also from sni445 deletion strains
[6] = target: T4, Nop58-FLAG (S. cerevisiae), Q12499; experiment: affinity purification with mass spectrometry; split-tag two-step purification: first Sni445-TAP on IgG Sepharose with TEV elution, then Nop58-FLAG on anti-FLAG M2 agarose with 3x Flag peptide elution; SDS-PAGE, Coomassie, bands identified by MS; conditions: remark: other sources report otherwise
T4 chain: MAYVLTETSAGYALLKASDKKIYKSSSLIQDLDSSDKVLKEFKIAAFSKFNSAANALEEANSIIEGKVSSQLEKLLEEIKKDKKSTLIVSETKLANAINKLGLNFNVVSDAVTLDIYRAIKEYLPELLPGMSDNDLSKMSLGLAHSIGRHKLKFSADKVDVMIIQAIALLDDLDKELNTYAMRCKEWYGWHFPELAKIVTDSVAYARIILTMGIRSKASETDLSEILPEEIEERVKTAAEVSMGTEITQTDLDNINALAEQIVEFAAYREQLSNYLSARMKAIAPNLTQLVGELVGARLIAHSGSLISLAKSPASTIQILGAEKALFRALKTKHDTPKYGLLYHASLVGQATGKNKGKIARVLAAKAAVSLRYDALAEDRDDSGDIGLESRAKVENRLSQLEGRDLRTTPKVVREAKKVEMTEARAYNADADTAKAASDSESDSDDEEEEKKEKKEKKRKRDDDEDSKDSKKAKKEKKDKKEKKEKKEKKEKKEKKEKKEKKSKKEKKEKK

[7] = target: T5, Enp1-TAP (S. cerevisiae) (UniProt P38333); experiment: affinity purification with mass spectrometry; tandem affinity purification of chromosomally TAP-tagged baits from yeast lysate (IgG Sepharose, TEV elution, Calmodulin Sepharose, EGTA elution; 50 mM Tris-HCl pH 7.5, 100 mM NaCl, 1.5 mM MgCl2, 0.075% NP-40); label-free MS, three replicates; Pwp2-TAP and Enp1-TAP also from sni445 deletion strains
T5 sequence: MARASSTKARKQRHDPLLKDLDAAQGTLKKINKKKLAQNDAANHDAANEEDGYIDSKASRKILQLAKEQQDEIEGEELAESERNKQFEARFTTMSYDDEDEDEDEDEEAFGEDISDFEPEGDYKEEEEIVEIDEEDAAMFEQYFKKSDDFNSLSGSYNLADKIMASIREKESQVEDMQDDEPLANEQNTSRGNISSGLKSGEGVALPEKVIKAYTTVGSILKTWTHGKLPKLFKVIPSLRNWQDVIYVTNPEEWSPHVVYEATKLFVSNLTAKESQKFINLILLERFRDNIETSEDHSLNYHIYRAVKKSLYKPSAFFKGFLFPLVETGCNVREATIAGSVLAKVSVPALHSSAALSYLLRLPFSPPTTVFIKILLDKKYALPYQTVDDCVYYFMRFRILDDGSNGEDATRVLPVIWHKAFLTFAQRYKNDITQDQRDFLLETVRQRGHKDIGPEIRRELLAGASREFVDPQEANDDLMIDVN

[8] = target: T6, Pwp2-TAP (S. cerevisiae) (UniProt P25635); experiment: as above
T6 sequence: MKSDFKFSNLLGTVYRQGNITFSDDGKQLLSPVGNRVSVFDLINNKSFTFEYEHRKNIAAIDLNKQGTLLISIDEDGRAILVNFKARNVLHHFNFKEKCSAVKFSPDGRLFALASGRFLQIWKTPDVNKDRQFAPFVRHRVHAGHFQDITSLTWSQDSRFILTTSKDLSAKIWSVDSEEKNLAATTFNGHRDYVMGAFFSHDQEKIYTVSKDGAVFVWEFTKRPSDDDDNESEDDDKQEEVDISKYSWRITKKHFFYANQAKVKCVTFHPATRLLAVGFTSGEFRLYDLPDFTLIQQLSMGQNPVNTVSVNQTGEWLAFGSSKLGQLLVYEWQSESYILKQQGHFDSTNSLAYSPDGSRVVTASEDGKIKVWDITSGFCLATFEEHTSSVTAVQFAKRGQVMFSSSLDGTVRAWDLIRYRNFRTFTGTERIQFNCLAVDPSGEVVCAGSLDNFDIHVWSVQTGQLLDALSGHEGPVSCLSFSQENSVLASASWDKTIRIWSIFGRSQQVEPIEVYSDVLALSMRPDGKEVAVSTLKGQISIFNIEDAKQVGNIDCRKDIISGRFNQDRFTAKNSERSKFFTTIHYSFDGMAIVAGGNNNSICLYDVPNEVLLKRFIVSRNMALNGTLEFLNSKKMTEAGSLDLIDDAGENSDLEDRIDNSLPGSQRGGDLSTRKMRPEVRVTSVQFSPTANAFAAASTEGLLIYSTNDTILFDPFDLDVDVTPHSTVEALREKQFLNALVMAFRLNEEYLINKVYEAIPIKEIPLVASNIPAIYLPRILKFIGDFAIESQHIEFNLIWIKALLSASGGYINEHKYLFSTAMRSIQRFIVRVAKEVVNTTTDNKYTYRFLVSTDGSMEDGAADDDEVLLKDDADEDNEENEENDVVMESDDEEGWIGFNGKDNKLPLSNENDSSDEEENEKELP

- binding [1]: binds
- binding [2]: binds
- binding [3]: binds
- binding [4]: binds
- binding [5]: binds
Molecule: Nop56 (from UniProt Q12460 1-504)

- binding [6]: binds
B1: Nop1, P15646 1-327 (enzyme)
chain: MSFRPGSRGGSRGGSRGGFGGRGGSRGGARGGSRGGFGGRGGSRGGARGGSRGGFGGRGGSRGGARGGSRGGRGGAAGGARGGAKVVIEPHRHAGVYIARGKEDLLVTKNMAPGESVYGEKRISVEEPSKEDGVPPTKVEYRVWNPFRSKLAAGIMGGLDELFIAPGKKVLYLGAASGTSVSHVSDVVGPEGVVYAVEFSHRPGRELISMAKKRPNIIPIIEDARHPQKYRMLIGMVDCVFADVAQPDQARIIALNSHMFLKDQGGVVISIKANCIDSTVDAETVFAREVQKLREERIKPLEQLTLEPYERDHCIVVGRYMRSGLKK

- binding [7]: binds weakly
- binding [8]: binds
B2: Sni445 (protein, UniProt P53952 1-270)
chain: T1 sequence
